Reference: publication PMC10023571, “EGOC inhibits TOROID polymerization by structurally activating TORC1” (Nature Structural & Molecular Biology, 2023)
No constants are given. Whether binding was seen depends on the method and setting. Some results given as binding are weak or reduced against the parent protein; the word gives no strength.

Chains of the proteins cited; added tags and fusions are not shown. Lines headed by an entry give the natural chain unless they say otherwise; changes in a name come on top.
UniProt P32600: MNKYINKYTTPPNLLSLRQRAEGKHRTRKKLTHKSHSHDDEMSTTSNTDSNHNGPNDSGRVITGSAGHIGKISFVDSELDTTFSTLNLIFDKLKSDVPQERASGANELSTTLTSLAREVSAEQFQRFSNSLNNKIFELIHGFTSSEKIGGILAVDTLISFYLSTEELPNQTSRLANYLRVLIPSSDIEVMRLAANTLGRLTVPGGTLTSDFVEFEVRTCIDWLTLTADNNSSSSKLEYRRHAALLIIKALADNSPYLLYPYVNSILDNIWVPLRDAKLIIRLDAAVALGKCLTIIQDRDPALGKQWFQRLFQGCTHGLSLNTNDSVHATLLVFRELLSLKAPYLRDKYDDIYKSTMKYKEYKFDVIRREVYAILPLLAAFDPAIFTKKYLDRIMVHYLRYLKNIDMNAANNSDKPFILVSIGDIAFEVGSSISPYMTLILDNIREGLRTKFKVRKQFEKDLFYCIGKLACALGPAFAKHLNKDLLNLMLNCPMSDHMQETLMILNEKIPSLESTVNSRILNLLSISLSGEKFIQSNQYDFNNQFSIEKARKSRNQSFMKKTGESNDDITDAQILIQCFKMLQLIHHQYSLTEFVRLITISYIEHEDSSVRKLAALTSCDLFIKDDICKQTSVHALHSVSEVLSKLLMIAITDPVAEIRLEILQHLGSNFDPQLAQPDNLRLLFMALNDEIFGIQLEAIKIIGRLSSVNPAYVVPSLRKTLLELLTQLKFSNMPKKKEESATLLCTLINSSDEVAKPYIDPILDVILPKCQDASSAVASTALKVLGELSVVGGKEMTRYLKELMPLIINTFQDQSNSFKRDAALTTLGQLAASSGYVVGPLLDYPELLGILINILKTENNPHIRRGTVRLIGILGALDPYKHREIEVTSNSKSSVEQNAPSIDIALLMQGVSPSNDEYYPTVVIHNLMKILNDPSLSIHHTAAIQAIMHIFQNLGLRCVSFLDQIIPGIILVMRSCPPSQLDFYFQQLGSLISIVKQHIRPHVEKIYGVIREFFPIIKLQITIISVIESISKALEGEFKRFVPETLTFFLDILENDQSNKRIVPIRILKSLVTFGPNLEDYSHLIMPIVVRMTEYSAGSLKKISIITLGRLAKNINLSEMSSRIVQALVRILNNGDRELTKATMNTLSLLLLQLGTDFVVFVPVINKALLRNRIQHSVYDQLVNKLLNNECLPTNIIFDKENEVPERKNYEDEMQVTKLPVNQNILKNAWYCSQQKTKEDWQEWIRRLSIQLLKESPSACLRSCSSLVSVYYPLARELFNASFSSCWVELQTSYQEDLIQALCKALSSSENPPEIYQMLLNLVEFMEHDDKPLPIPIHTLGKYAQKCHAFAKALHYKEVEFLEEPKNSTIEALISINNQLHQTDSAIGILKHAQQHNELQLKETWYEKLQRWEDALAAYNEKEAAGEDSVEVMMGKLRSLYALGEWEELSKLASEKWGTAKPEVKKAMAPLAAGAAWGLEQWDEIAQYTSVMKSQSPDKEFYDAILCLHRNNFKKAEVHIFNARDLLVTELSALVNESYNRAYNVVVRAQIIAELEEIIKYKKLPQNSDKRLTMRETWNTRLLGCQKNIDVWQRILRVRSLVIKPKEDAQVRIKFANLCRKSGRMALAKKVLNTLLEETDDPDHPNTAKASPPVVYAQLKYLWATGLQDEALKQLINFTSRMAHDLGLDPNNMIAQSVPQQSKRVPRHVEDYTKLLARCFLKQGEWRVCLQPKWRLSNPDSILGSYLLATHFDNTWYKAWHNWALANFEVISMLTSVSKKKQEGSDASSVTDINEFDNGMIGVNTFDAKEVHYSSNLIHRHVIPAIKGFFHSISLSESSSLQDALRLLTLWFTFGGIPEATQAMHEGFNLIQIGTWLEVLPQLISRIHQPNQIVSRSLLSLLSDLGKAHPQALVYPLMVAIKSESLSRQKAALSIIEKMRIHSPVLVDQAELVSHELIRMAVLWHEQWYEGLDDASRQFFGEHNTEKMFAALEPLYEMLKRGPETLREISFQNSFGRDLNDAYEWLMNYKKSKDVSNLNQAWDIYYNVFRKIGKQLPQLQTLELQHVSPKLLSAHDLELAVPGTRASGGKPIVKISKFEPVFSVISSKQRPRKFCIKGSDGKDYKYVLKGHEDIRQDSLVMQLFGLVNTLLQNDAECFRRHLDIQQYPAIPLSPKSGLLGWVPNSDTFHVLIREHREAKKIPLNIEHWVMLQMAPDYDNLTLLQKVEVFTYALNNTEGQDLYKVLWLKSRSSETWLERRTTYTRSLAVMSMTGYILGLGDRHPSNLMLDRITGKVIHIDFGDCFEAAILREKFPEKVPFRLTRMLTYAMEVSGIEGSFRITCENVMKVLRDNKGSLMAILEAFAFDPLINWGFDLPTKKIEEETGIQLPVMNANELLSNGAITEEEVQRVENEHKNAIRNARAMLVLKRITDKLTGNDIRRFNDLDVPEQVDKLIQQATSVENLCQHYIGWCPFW

Molecular target: TORC1 in the TOROID (Tor2 only), purified from KOG1-TAP ∆tor1 cells (S. cerevisiae (endogenous in S. cerevisiae cells) | S. cerevisiae) (UniProt P32600)
Experiment: cryo-EM structure; TOROID filaments purified from KOG1-TAP ∆tor1 cells grown PDS (subunits co-purified from yeast); helical reconstruction, then signal subtraction and single particle analysis, 3.87 Å; both purified

Substance: TORC1 in the TOROID (Tor2 only), purified from KOG1-TAP ∆tor1 cells (from UniProt P32600 1-2474; P38873 1-1557; P41318 1-303; Q08921 1-799) (complex)
- binding: binds
